Experimental data taken from publication PMC11094040.
No constants are given. Whether binding was seen depends on the method and setting. In cells and extracts the contact can be indirect. Binding can be weak; no strength is given.

Legend:
[1] = molecular target: FLAG-Spn-E-EQ (E251Q) (silkworm); assay: co-IP; tandem IP: first anti-FLAG IP of FLAG-Spn-E-EQ from BmN4 lysate, 3x FLAG peptide eluate diluted with buffer D, second IP with anti-BmAgo3 antibody (or normal rabbit IgG); beads with or without 200 μg/ml RNase A at 30 °C for 15 min; Siwi detected by western blot
[2] = molecular target: FLAG-Spn-E (wild type) (silkworm); assay: co-IP; anti-FLAG (M2) on Dynabeads Protein G, lysate of BmN4 cells expressing FLAG-Spn-E (wild type or EQ) and treated with dsRNA targeting the Spn-E 3' UTR; buffer B (25 mM Tris-HCl pH 7.6, 150 mM NaCl, 1.5 mM MgCl2, 0.25% Triton X-100), 4 °C; eluted with 3x FLAG peptide; western blot for Siwi and BmAgo3
[3] = molecular target: FLAG-Spn-E-EQ (E251Q) (silkworm); assay: as above

Measured: binding

B1: Siwi (protein, UniProt A8D8P8 1-899)
chain: MSEPRGRGRARGRAGRGGDGGGPAPRRPGEQAGPSQQSMPPGPRPQPPSGWGPQSSVPPVRAGVPTPTAQAGRASHRVTPTTHEHPGDIDVQQRMQKLELGPHSSGGGDASSVVGRGSRRGGGRVLPETISILRTRPEAVTSKKGTSGTPLDLLANYFTVETTPKWGLYQYHVDISPEEDSTGVRKALMRVHSKTLGGYLFDGTVLYTVNRLHPDPMELYSDRKTDNERMRILIKLTCEVSPGDYHYIQIFNIIIRKCFNLLKLQLMGRDYFDPEAKIDIPEFKLQIWPGYKTTINQYEDRLLLVTEIAHKVLRMDTVLQMLSEYAATKGNNYKKIFLEDVVGKIVMTDYNKRTYRVDDVAWNVSPKSTFKMRDENITYIEYYYKKYNLRIQDPGQPLLISRSKPREIRAGLPELIYLVPELCRQTGLSDEMRANFKLMRSLDVHTKIGPDKRIEKLNNFNRRFTSTPEVVEELATWSLKLSKELVKIKGRQLPPENIIQANNVKYPAGDTTEGWTRDMRSKHLLAIAQLNSWVVITPERQRRDTESFIDLIIKTGGGVGFRMRSPDLVVIRHDGPIEYANMCEEVIARKNPALILCVLARNYADRYEAIKKKCTVDRAVPTQVVCARNMSSKSAMSIATKVAIQINCKLGGSPWTVDIPLPSLMVVGYDVCHDTRSKEKSFGAFVATLDKQMTQYYSIVNAHTSGEELSSHMGFNIASAVKKFREKNGTYPARIFIYRDGVGDGQIPYVHSHEVAEIKKKLAEIYAGVEIKLAFIIVSKRINTRIFVQRGRSGENPRPGTVIDDVVTLPERYDFYLVSQNVREGTIAPTSYNVIEDTTGLNPDRIQRLTYKLTHLYFNCSSQVRVPSVCQYAHKLAFLAANSLHNQPHYSLNETLYFL
binds: all assays above

B2: BmAgo3 (protein, UniProt A9ZSZ2 1-926)
chain: MADPGKGRGRSLALLQALKKSQMMDSPSQSESQSPESTPEQSTAPSTIASATPSTSGVSIGGRGRAAALMLAKMQQKPGSTTPAIFVPPSSTSAPTAGTGRGFKLLQNLQASQKASSQIASSQVTSSAQSDIKDLTEKMSETSVSAQASSVAKNKYFREVKDTPPVVKKGETGVPIEVTCNYIYLNFKENIVFEYEVKFEPDQDYKHLRFKLLNEHIEHFKEKTFDGTTLYVPHELPDAVRNLVSTNPYDQSKVNVSIIFRRTRRLSEMIHIYNVMFKCIMKDLKLIRFGRQHYNEHAAIQIPQHKLEVWPGYVTAVDEYEGGLMLTLDSTHRVLRTQTVLSLIKEVVQTEGANWKRKMTDILIGASVMTTYNKKLFRVDTIDDKMSPRSTFEKTEKGETVQISFIDYYKKNYGIEIMDWDQPLLISRDTKRMPGSDTPTDFMICLIPELCQLTGLTDDQRSNFRLMKDVATYTRITPNQRHAAFKKYIESVMKNETAKSRLAGWGLSIAPETVNLTARTLPPETLYFGDNVRVPGKPNAEWNSEVTKHSVMQAVDIMRWVLLFTQRDKQVAMDFLSTLKRNCRPMGIMVSDAELVPLANDRTDTYVLALKKCITSSVQLVVAICSTKRDDRYAAIKKVCCADNPVPSQVINARTLMNTNKIRSITQKILLQLNCKLGGTLWSISIPFKSAMIVGIDSYHDPSRRNRSVCSFVASYNQSMTLWYSKVIFQEKGQEIVDGLKCCLVDALTHYLRSNGQLPDRIIIYRDGVGDGQLKLLQQYEIPQMKICFTILGSNYQPTLTYVVVQKRINTRIFLKSRDGYDNPNPGTVVDHCITRRDWYDFLIVSQKVTQGTVTPTHYVVVYDDSGITPDQCQRLTYKMCHLYYNWPGTVRVPAPCQYAHKLSYLVGQCVHAQPSDVLVDKLFFL
binds: all assays above
